Test results reported in patent publication US20190022220A1, “LIGHT-ACTIVATED ANCHORING OF THERAPEUTIC FACTORS TO TISSUES” (The Board of Trustees of the Leland Stanford Junior …, priority 2016, published 2019).

Assay: Western blot of NGF-FITC within corneal stroma

NGF-FITC: fluorescein-isothiocyanate (FITC)-labeled conjugate of NGF
NGF surface concentration on corneal stroma (normalized band intensity) (V-CXL coupling vs topical delivery alone): higher NGF surface concentration
NGF surface concentration on corneal stroma (normalized band intensity) (non-photochemical crosslinking vs topical delivery alone): higher NGF surface concentration
